US20080125424A1, “Derivatives of urea and related diamines, methods for their manufacture, and uses therefor” (priority 2006, published 2008)
Some results were stated once for a whole list of compounds, not compound by compound.

Target: T1, Human Ca2+ receptor (Homo sapiens, UniProt P41180)
T1 construct: expressed in transfected cells
T1 sequence (P41180 20-1078): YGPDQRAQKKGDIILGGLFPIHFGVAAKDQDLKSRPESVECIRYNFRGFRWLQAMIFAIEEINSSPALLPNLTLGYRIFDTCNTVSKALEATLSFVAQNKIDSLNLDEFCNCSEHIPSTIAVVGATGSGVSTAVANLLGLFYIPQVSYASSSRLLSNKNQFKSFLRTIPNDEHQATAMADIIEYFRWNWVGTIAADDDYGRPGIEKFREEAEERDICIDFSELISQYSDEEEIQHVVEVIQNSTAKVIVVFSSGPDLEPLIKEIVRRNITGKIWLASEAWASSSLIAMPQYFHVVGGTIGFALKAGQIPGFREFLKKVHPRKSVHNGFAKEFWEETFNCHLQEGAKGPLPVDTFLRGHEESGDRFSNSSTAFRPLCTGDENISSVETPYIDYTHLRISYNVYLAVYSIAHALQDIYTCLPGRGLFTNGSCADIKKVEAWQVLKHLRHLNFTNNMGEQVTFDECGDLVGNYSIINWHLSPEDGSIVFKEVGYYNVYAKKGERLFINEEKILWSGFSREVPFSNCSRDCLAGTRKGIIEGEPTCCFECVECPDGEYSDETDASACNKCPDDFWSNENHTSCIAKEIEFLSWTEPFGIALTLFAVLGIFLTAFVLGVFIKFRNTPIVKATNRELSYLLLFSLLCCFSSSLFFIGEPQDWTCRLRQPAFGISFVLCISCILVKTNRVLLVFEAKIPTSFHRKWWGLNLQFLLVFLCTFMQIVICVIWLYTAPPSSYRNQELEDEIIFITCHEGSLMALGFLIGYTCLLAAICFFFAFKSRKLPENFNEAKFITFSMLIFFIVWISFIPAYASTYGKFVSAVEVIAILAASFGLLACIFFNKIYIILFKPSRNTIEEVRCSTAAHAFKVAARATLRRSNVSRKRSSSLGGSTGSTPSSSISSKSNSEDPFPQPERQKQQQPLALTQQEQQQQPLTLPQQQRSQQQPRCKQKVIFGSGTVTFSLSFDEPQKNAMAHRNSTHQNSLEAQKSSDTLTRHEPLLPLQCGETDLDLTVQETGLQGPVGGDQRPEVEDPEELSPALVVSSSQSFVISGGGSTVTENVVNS
Experiment: Luciferase reporter assay in CHO cells (ET8-5-5) transfected with human Ca2+ receptor
Format: cell-based
Details: CHO ET8-5-5 cells
Procedure: The activities of the compounds of the present invention on calcium receptors were measured in accordance with the method described hereinbelow.
Human Ca^2+ receptor cDNA was subcloned into the mammalian expression vector PECE as described in Ellis, L et al. (1986) Cell vol. 45, 721-732. The luciferase reporter was subcloned into the mammalian expression vector pGL3basic (Promega). Resistance to neomycin (pSV2-neo) and resistance to puromycin (pSG5-puro) were used as selection markers. All these plasmids were simultaneously transfected into CHO cells by calcium phosphate precipitation. Transfected cells were grown in F12 medium containing 7.5% foetal bovine serum, 100 U/ml penicillin and 100 μg/ml streptomycin (as 1% Pen-Strep, BioWithaker), neomycin (750 μg/ml) and puromycin (5 μg/ml). Neomycin and puromycin resistant colonies were subcloned and assayed for activation against a range of calcium concentration. Clone 8-5-5 was used to assess the effects of compounds on [Ca^2+]i. This stably transfected cell line was termed ET8-5-5.
For measurements of [Ca^2+]i, the cells were recovered from tissue culture flasks by brief treatment with Trypsin-EDTA (Invitrogen; containing 0.53 mM EDTA.4Na in HBSS) and then seeded in culture-treated 96-well plates (Greiner) at 50 k cells per well in the growth media (same as above, except neomycin 400 μg/ml). Cells were grown in 37° C. TC incubator for 24 h. The culture medium was then removed and replaced with F12 medium, 1% Pen-Strep for an overnight foetal bovine serum starvation in 37° C. TC incubator. Then the starvation medium was removed and replaced with a test buffer (20 mM HEPES pH 7.4, 125 mM NaCl, 5 mM KCl, 1 mM MgCl2, 5.5 mM Glucose, 2 g/l lysosyme and 0.3 mM CaCl2) supplemented with a range of test compound concentrations crossed against a super-added range of CaCl2 concentrations. The cells were incubated with the test compounds for 5 h in 37° C. TC incubator. Then the test buffer was discarded, and cells were added with the substrate for Luciferase from SteadyLite Kit (Perkin-Elmer). The luminescence was recorded.

Row | Structure (SMILES) | EC50
1 | O=C(CCN(CCC(c1ccccc1)c1ccccc1)C(=O)Nc1nc2ccccc2s1)N1CCOCC1 [Example 103, 3-(benzo[d]thiazol-2-yl)-1-(3,3-diphenylpropyl)-1-(3-morpholino-3-oxopropyl)urea] | ≤ 10 µM
2 | CS(=O)(=O)Nc1ccc(-c2csc(NC(=O)N(CCCC(=O)NC3CCNCC3)CCC(c3ccccc3)c3ccccc3)n2)cc1 [Example 70, 1-(3,3-diphenylpropyl)-3-(4-(4-(methylsulfonamido)phenyl)thiazol-2-yl)-1-(4-oxo-4-(piperidin-4-ylamino)butyl)urea] | ≤ 10 µM
3 | CC(C)(C)OC(=O)N1CCN(C(=O)CCCN(CCC(c2ccccc2)c2ccccc2)C(=O)Nc2nc3ccccc3s2)CC1 [Example 95, tert-butyl 4-(4-(3-(benzo[d]thiazol-2-yl)-1-(3,3-diphenylpropyl)ureido)butanoyl)piperazine-1-carboxylate] | ≤ 10 µM
4 | COc1ccc(CNC(=S)NCCC(c2ccccc2)c2ccccc2)cc1 [Example 46, 1-(3,3-diphenyl-propyl)-3-(4-methoxy-benzyl)-thiourea] | ≤ 10 µM
5 | COc1cccc(NC(=O)NCC(c2ccccc2)c2ccccc2)c1 [Example 24, 1-(2,2-diphenyl-ethyl)-3-(3-methoxy-phenyl)-urea] | ≤ 10 µM
6 | O=C(O)CCCN(CCC(c1ccccc1)c1ccccc1)C(=O)Nc1nc2ccccc2s1 [Example 104, 4-(3-(benzo[d]thiazol-2-yl)-1-(3,3-diphenylpropyl)ureido)butanoic acid] | ≤ 10 µM
7 | CS(=O)(=O)Nc1ccc(-c2nc(NC(=O)N(CCN[C@H]3CCCNC3)CCC(c3ccccc3)c3ccccc3)sc2Cl)cc1 [Example 141, (S)-3-(5-chloro-4-(4-(methylsulfonamido)phenyl)thiazol-2-yl)-1-(3,3-diphenylpropyl)-1-(2-(piperidin-3-ylamino)ethyl)urea] | ≤ 10 µM
8 | O=C(NCCN(CCC(c1ccccc1)c1ccccc1)C(=O)Nc1nc2ccccc2s1)C1CCNCC1 [Example 166, Piperidine-4-carboxylic acid {2-[3-benzothiazol-2-yl-1-(3,3-diphenyl-propyl)-ureido]-ethyl}-amide] | ≤ 10 µM
9 | O=C(NCCCCN(CCC(c1ccccc1)c1ccccc1)C(=O)Nc1nc2ccccc2s1)C1CCCCN1 (centres unmarked) [Example 128, 3-(benzo[d]thiazol-2-yl)-1-(3,3-diphenylpropyl)-1-(4-(piperidine-2-carboxamido)butyl)urea] | ≤ 10 µM
10 | O=C(NCCC(c1ccccc1)c1ccccc1)Nc1cccc(-c2ccccc2)c1 [Example 36, 1-biphenyl-3-yl-3-(3,3-diphenyl-propyl)-urea] | ≤ 10 µM
11 | COC(=O)c1cccc(NC(=O)NCCC(c2ccccc2)c2ccccc2)c1Cl [Example 43, 2-chloro-3-[3-(3,3-diphenyl-propyl)-ureido]-benzoic acid methyl ester] | ≤ 10 µM
12 | O=C(Nc1nc2ccccc2s1)N(CCNC1CCOCC1)CCC(c1ccccc1)c1ccccc1 [Example 156, 3-Benzothiazol-2-yl-1-(3,3-diphenyl-propyl)-1-[2-(tetrahydro-pyran-4-ylamino)-ethyl]-urea] | ≤ 10 µM
13 | CS(=O)(=O)NCCN(CCC(c1ccccc1)c1ccccc1)C(=O)Nc1nc2ccccc2s1 [Example 167, N-{2-[3-Benzothiazol-2-yl-1-(3,3-diphenyl-propyl)-ureido]-ethyl}-methanesulfonamide] | ≤ 10 µM
14 | O=C(O)CN1CCC(NCCN(CCC(c2ccccc2)c2ccccc2)C(=O)Nc2nc3ccccc3s2)CC1 [Example 162, (4-{2-[3-Benzothiazol-2-yl-1-(3,3-diphenyl-propyl)-ureido]-ethylamino}-piperidin-1-yl)acetic acid] | ≤ 10 µM
15 | COC(=O)c1sccc1NC(=O)NCCC(c1ccccc1)c1ccccc1 [Example 30, 3-[3-(3,3-diphenyl-propyl)-ureido]-thiophene-2-carboxylic acid methyl ester] | ≤ 10 µM
16 | CS(=O)(=O)Nc1ccc(-c2nc(NC(=O)N(CCCC(=O)O)CCC(c3ccccc3)c3ccccc3)sc2Cl)cc1 [Example 73, 4-(3-(5-chloro-4-(4-(methylsulfonamido)phenyl)thiazol-2-yl)-1-(3,3-diphenylpropyl)ureido)butanoic acid] | ≤ 10 µM
17 | COc1ccc(S(=O)(=O)NCCN(CCC(c2ccccc2)c2ccccc2)C(=O)Nc2nc3ccccc3s2)cc1 [Example 172, N-{2-[3-Benzothiazol-2-yl-1-(3,3-diphenylpropyl)-ureido]-ethyl}-4-methoxybenzenesulfonamide] | ≤ 10 µM
18 | CN(CCN(CCC(c1ccccc1)c1ccccc1)C(=O)Nc1nc(-c2ccccc2)cs1)C1CCCCC1 [Example 164, 1-[2-(Cyclohexyl-methyl-amino)-ethyl]-1-(3,3-diphenyl-propyl)-3-(4-phenyl-thiazol-2-yl)-urea] | ≤ 10 µM
19 | C[C@@H]1CNCCN1C(=O)CCN(CCC(c1ccccc1)c1ccccc1)C(=O)Nc1nc2ccccc2s1 [Example 120, (R)-3-(benzo[d]thiazol-2-yl)-1-(3,3-diphenylpropyl)-1-(3-(2-methylpiperazin-1-yl)-3-oxopropyl)urea] | ≤ 10 µM
20 | COC(=O)c1cccc(NC(=O)NCCC(c2ccccc2)c2ccccc2)c1 [Example 22, 3-[3-(3,3-diphenyl-propyl)-ureido]-benzoic acid methyl ester] | ≤ 10 µM
21 | Cc1cc(NC(=O)NCCC(c2ccccc2)c2ccccc2)n[nH]1 [Example 29, 1-(3,3-diphenyl-propyl)-3-(5-methyl-1H-pyrazol-3-yl)-urea] | ≤ 10 µM
22 | O=C(O)CN(CCC(c1ccccc1)c1ccccc1)C(=O)Nc1cccc(C(=O)O)c1 [Example 66, 3-[3-carboxymethyl-3-(3,3-diphenyl-propyl)-ureido]-benzoic acid] | ≤ 10 µM
23 | O=C(NCCC(c1ccccc1)c1ccccc1)Nc1nc2ccccc2s1 [Example 60, 1-benzothiazol-2-yl-3-(3,3-diphenyl-propyl)-urea] | ≤ 10 µM
24 | O=C(O)CNCCN(CCC(c1ccccc1)c1ccccc1)C(=O)Nc1nc2ccccc2s1 [Example 161, {2-[3-Benzothiazol-2-yl-1-(3,3-diphenyl-propyl)-ureido]-ethylamino}-acetic acid] | ≤ 10 µM
25 | C[C@@H]1CN(C(=O)CCCN(CCC(c2ccccc2)c2ccccc2)C(=O)Nc2nc(-c3ccccc3)cs2)CCN1 [Example 99, (R)-1-(3,3-diphenylpropyl)-1-(4-(3-methylpiperazin-1-yl)-4-oxobutyl)-3-(4-phenylthiazol-2-yl)urea] | ≤ 10 µM
26 | O=C(O)CCN(CCC(c1ccccc1)c1ccccc1)C(=O)Nc1nc2ccccc2s1 [Example 114, 3-(3-(benzo[d]thiazol-2-yl)-1-(3,3-diphenylpropyl)ureido)propanoic acid] | ≤ 10 µM
27 | O=C(NCCC(c1ccccc1)c1ccccc1)Nc1ccc(C(=O)O)cc1 [Example 49, 4-[3-(3,3-diphenyl-propyl)-ureido]-benzoic acid] | ≤ 10 µM
28 | O=C(CCCN(CCC(c1ccccc1)c1ccccc1)C(=O)Nc1nc2ccccc2s1)N1CCOCC1 [Example 94, 3-(benzo[d]thiazol-2-yl)-1-(3,3-diphenylpropyl)-1-(4-morpholino-4-oxobutyl)urea] | ≤ 10 µM
29 | O=C(Nc1nc2ccccc2s1)N(CCO)CCC(c1ccccc1)c1ccccc1 [Example 175, 3-Benzothiazol-2-yl-1-(3,3-diphenylpropyl)-1-(2-hydroxy-ethyl)-urea] | ≤ 10 µM
